PMC6992617
These are yes or no findings as the source states them, for the method shown. In cells and extracts the contact can be indirect. Some results given as binding are weak or reduced against the parent protein; the word gives no strength.

Chains of the proteins cited; added tags and fusions are not shown. Residues count along the entry.
UniProt P08581, residues 25-1390: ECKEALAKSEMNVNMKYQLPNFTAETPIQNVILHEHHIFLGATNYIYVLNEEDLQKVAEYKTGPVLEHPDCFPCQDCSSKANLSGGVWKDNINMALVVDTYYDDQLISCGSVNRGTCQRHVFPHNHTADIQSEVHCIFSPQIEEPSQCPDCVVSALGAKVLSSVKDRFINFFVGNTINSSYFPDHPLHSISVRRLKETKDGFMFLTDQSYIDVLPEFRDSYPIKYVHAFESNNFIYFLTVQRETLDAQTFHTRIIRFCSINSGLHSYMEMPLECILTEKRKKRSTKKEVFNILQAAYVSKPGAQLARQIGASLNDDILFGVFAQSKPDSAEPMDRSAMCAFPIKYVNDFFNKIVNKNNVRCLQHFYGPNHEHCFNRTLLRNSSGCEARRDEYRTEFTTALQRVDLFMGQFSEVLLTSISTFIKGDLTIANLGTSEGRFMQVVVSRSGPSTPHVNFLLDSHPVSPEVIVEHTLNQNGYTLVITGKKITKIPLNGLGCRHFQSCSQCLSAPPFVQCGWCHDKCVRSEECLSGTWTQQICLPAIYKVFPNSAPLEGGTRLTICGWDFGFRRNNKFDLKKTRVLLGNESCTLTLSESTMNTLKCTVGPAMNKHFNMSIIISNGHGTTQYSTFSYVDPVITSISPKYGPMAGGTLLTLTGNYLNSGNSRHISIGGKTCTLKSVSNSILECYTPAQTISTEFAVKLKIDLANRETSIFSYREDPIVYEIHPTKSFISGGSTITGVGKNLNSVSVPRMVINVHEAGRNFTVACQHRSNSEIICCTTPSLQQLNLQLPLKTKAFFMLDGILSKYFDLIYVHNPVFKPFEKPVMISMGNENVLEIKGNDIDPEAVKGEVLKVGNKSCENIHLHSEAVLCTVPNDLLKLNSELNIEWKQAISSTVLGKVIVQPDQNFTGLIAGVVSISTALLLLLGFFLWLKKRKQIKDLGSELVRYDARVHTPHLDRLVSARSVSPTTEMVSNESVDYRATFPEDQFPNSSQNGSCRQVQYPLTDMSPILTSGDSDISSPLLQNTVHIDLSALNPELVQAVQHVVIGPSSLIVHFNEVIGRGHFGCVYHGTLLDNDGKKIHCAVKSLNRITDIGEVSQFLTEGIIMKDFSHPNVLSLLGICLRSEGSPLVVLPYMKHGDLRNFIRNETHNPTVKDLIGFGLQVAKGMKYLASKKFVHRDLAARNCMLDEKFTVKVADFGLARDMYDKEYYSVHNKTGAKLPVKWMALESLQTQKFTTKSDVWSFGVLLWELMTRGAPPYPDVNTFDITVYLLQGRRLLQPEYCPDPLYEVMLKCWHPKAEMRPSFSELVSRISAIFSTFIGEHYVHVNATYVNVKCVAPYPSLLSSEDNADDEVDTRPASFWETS

Target: mesenchymal-epithelial transition factor (human (endogenous in LN229R, U87MGR and HG9R)) (UniProt P08581)
Assay: cross-linking; lysates (1% Triton X-100 buffer) of TMZ-resistant glioma cells treated with or without BIP-MPC-NP; with or without 150 nM EGF and 100 ng/mL HGF for 30 min at room temperature; 40 mM glutaraldehyde for 1 min, stopped with 0.2 M glycine; 6% SDS-PAGE and Western blot

- binding: binds
Substance: mesenchymal-epithelial transition factor (from UniProt P08581 25-1390) (receptor)
